Assay results: PubChem BioAssay AID624297 (National Center for Advancing Translational Sciences (NCATS), 2012)
Hit rate of the full screen: of about 340,000 compounds, about 6,200 (1.8%) were called active. Inconclusive results, whose numbers are uncertain, are shown with a selection of clear calls. Calls follow the shape of the dose curve; as a rule, active = well fitted activation curve with a large enough effect; inconclusive = small, poorly fitted or top-dose-only effect; inactive = no such curve, though single readings can be large or run the other way. Potencies beside an inconclusive call are fits to weak or partial responses and may not hold up.
Potency is read from the fitted curve at half-maximal effect.

Experiment: A quantitative high throughput screen for small molecules that induce DNA re-replication in SW480 colon adenocarcinoma cells. Also: nearly all actives have a fitted effect of over 55% in size. As to re-replication activation: % of control where 0% means no effect.
Conditions: Hoechst DNA content imaging, 48 h; re-replication activation: at 46.1 µM (top of the series) unless noted
Procedure, shortened: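 DNA re-replication was detected as more nuclei of elevated Hoechst intensity after 48 hr exposure to compound (23 nL pinned per well of 250 cells).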
For COc1ccc(-c2ccc(-c3cc(=O)oc4c(C(C)C)ccc(C)c34)cc2)cc1, the Potency was inconclusive: 29.1 µM [activator, single point]. For CC(C)(C)CC(C)(C)SSc1n[nH]c(=S)s1, the Potency was inconclusive: 18.4 µM [activator, single point]. For COCc1cc(Sc2ccc(Cl)cc2)nc(C)n1, the Potency was inconclusive: 29.1 µM [activator, single point]. For COc1ccc(-c2nnc(S/C(=C/c3ccc(Cl)cc3)C(=O)O)o2)cc1, the Potency was inconclusive: 18.4 µM [activator, single point]. For CCOC(=O)c1cnc2ccc(OC)cc2c1Nc1ccc(N2CCN(C)CC2)cc1, the Potency was inconclusive: 25.9 µM [activator, single point]. For CC(C)C1N=C(c2ccc3c(c2)OCO3)CC(c2ccccc2O)N1 (configuration not stated), the Potency was inconclusive: 20.6 µM [activator, single point]. In the case of CCOC(=O)C1=C(C)NC(C)=C(C(=O)OCC)C1/C=C/c1ccccc1, the Potency is reported as inconclusive: 22.4 µM [activator, single point]. In the case of COc1ccccc1[C@@H]1C(c2cccc(Cl)c2)=NN(c2ccccc2)[C@H]1C(=O)N1CCOC1=O, the Potency is reported as active: 2.59 µM. For O=c1[nH]ncc(N2CCCCC2)c1Cl, the Potency was inconclusive: 0.164 µM [activator, full curve, poor fit]. With O=S(=O)(NCCN1CCOCC1)c1ccc(-c2ccc(S(=O)(=O)NCCN3CCOCC3)cc2)cc1 the Potency was “inactive”. With S=c1[nH]nc(-c2ccc(Cl)cc2)n1CC1CCCO1 (configuration not stated) the Potency was inconclusive: 29.1 µM [activator, single point]. In the case of CCN(CC)S(=O)(=O)c1cc(NC(=O)C(C)N2CCc3ccccc32)ccc1C (configuration not stated), the Potency is reported as inconclusive: 0.231 µM [activator, single point]. In the case of O=C(NCCOc1ccc(F)cc1)C1CCC(=O)N(CCCN2CCOCC2)C1 (configuration not stated), the Potency is reported as inconclusive: 5.17 µM [activator, full curve]. In the case of COC(=O)c1c(C(=O)OC)c(-c2ccc(Br)cc2)n2c1CS(=O)C2 (configuration not stated), the Potency is reported as inconclusive: 20.6 µM [activator, single point]. For C[C@@]12C(=O)Nc3ccccc3C(=O)N1[C@H]1c3cc(Cl)ccc3OC[C@@H]1[C@@H]2c1ccccc1, the Potency was inconclusive: 18.4 µM [activator, single point]. For CCN(c1ccccc1)S(=O)(=O)c1ccc(N)c(OC)c1, the Potency was active: 11.2 µM. In the case of CCOc1c(Br)cc(CNC2CCCCCCC2)cc1OC, the Potency is reported as inconclusive: 29.1 µM [activator, single point]. With CC(NC(=O)C(=O)N/N=C/c1ccc(Cl)cc1)c1ccccc1 (configuration not stated) the Potency was “inactive”. In the case of Cc1c(OCC(=O)C(C)(C)C)ccc2c(-c3ccccc3)cc(=O)oc12, the Potency is reported as “inactive”. In the case of CCCCNCc1cccn1-c1ccccc1, the Potency is reported as inconclusive: 29.1 µM [activator, single point]. For COc1ccc2[nH]c(O)c(N=NC(=O)Cc3cccs3)c2c1, the Potency was inconclusive: 18.4 µM [activator, single point]. With CCc1noc(C)c1C(=O)Nc1nnc(C(CC)CC)s1 the Potency was “inactive”. In the case of Cc1ccccc1NC(=S)NC(=O)/C=C/c1ccco1, the Potency is reported as inconclusive: 6.51 µM [activator, single point]. With Cc1cc(C)cc(OCCNC(=O)c2cc(S(=O)(=O)N3CCOCC3)ccc2F)c1 the Potency was inconclusive: 10.3 µM [activator, partial curve, poor fit]. For O/N=C(\c1ccc(Cl)cc1)c1ncc(C(F)(F)F)cc1Cl, the Potency was inconclusive: 23.1 µM [activator, single point]. In the case of O=C(NC1CCCC1)C(c1ccccn1)N(C(=O)c1csnn1)c1ccccc1Cl (configuration not stated), the Potency is reported as “inactive”. For Clc1cccc(OCCN2CCN(CCOc3cccc(Cl)c3)CC2)c1, the Potency was inconclusive: 29.1 µM [activator, single point]. For COc1ccccc1CNC(=O)c1oc2ccc(S(=O)(=O)N3CCCC3)cc2c1C, the Potency was “inactive”. For O=C(C=NNc1ccccc1)c1ccccc1, the Potency was “inactive”. In the case of CC(C)C(=O)NC(c1ccc(N(C)C)cc1)c1c(O)ccc2ccccc12 (configuration not stated), the Potency is reported as “inactive”. In the case of Cc1ccc(Nc2nc3nonc3[nH]c2=O)cc1Cl, the Potency is reported as inconclusive: 29.1 µM [activator, single point]. In the case of CC(=O)Nc1ccc(OC(F)(F)Cl)cc1, the Potency is reported as “inactive”. For Cc1cc(C)c(S(=O)(=O)N2CCCC(C(=O)NCCC3=CCCCC3)C2)c(C)c1 (configuration not stated), the Potency was inconclusive: 29.1 µM [activator, single point]. For O=[N+]([O-])c1cc(CN2CCN(c3ccccc3)CC2)c(O)c2ncccc12, the Potency was inconclusive: 1.46 µM [activator, full curve, poor fit]. For Cc1ccc(S(=O)(=O)NCCN2CCOCC2)s1, the Potency was “inactive”. With CC(=O)c1ccc(S(=O)(=O)Oc2ccc(-c3ccc(C(=O)O)cc3)cc2)cc1 the Potency was “inactive”. In the case of CCOC(=O)C(NC(C)=O)(Nc1ccc(S(N)(=O)=O)cc1)C(F)(F)F (configuration not stated), the Potency is reported as inconclusive: 18.4 µM [activator, single point]. For O=C1NC2CCc3nc4ccccc4c(=O)n3C2=Nc2ccccc21 (configuration not stated), the Potency was “inactive”. In the case of COCCNC(=S)N/N=C(\C)c1ccc(Cl)c(Cl)c1, the Potency is reported as “inactive”. For Cc1ccc(NC(=O)c2cc(NC(=O)c3ccccc3C(=O)O)ccc2N2CCCCC2)cc1, the Potency was “inactive”. In the case of O=C(CC(c1ccc(F)cc1)c1ccco1)Nc1nccs1 (configuration not stated), the Potency is reported as “inactive”. With CCOc1ccc(NS(=O)(=O)c2ccc(OC)c(NC(=O)c3ccc4c(c3)OCCO4)c2)cc1 the Potency was inconclusive: 5.17 µM [activator, full curve, poor fit]. In the case of Cc1ccc(N=C2S/C(=C\c3cn(CC(=O)O)c4ccccc34)C(=O)N2C)cc1, the Potency is reported as inconclusive: 0.517 µM [activator, partial curve, poor fit]. In the case of CCOC(=O)Cn1c(=O)oc2cc(S(=O)(=O)NCCCc3ccccc3)ccc21, the Potency is reported as “inactive”. In the case of COc1ccc(-c2cc(=O)c3cc(O)ccc3o2)cc1, the Potency is reported as “inactive”. With CCOc1ccccc1C(=O)N/N=C/c1cccc2cccnc12 the Potency was inconclusive: 29.1 µM [activator, single point]. With Cc1cc(C)c2cc(CN(CCN3CCCC3)C(=O)Nc3ccc(F)cc3)c(=O)[nH]c2c1 the Potency was “inactive”. In the case of CN1CCN(c2ccccc2NC(=O)c2ccc(-c3ccc(Cl)cc3Cl)o2)CC1, the Potency is reported as inconclusive: 3.66 µM [activator, partial curve, poor fit]. For Cc1c(Br)c([N+](=O)[O-])nn1CC(=O)Nc1ccc(C(C)C)cc1, the Potency was inconclusive: 1.84 µM [activator, full curve]. For CCCc1ccc(NC(C)C(=O)Nc2ccc(S(=O)(=O)N3CCOCC3)cc2)cc1 (configuration not stated), the Potency was “inactive”. For Cc1nn2cnc3sc4c(c3c2nc1=O)CCCC4, the re-replication activation was inactive: -4.36% [at 9.22 µM]. In the case of Cc1cc(-c2onc(C)c2C(=O)Nc2ccc(C(F)(F)F)cc2)no1, the Potency is reported as “inactive”. For N#C/C(=C\c1ccccc1C(F)(F)F)C(=O)Nc1ccccc1F, the Potency was inconclusive: 0.0052 µM [activator, full curve, poor fit]. For O=C(CCOc1ccccc1)NNC(=O)c1ccccc1, the Potency was “inactive”. For NC(=O)[C@H]1CC2(CC(c3cccc(NC(=O)COc4ccc(Cl)cc4)c3)=NO2)CN1C(=O)Cc1ccc([N+](=O)[O-])cc1 (some centres not stated), the Potency was inconclusive: 20.6 µM [activator, partial curve, poor fit]. For CCn1c(SCC(=O)Nc2ncc(C(F)(F)F)cc2Cl)nnc1-c1ccccc1, the Potency was “inactive”. With Cc1cccc(Nc2nc(-c3c(C)nc4ccccn34)cs2)c1 the Potency was inconclusive: 23.1 µM [activator, partial curve, poor fit]. With Fc1ccc(/C=N/NC(=S)Nc2ccc(Cl)cc2Cl)cc1 the Potency was inconclusive: 1.64 µM [activator, full curve]. In the case of O=C(NC(=S)Nc1ccc(N2CCCCC2)c(Cl)c1)c1ccc2c(c1)OCCO2, the Potency is reported as inconclusive: 35.5 µM [activator, single point]. In the case of Cc1cc(C)n(CC(=O)N2CCCC(N3CCN(c4ccccc4C)CC3)C2)n1 (configuration not stated), the Potency is reported as “inactive”. With COc1ccccc1-c1noc(-c2ccccc2C(=O)NCC2CCCO2)n1 (configuration not stated) the Potency was “inactive”. For CN(C)/C=C1\N=C(c2ccccc2)OC1=O, the Potency was “inactive”. For Cn1c(=O)c2c(nc(SCc3ccccc3F)n2C)n(C)c1=O, the Potency was inconclusive: 20.6 µM [activator, single point]. In the case of CCN(c1ccccc1)S(=O)(=O)c1cc(NC(=O)CN2CCN(C)CC2)ccc1Cl, the Potency is reported as inconclusive: 29.1 µM [activator, single point]. In the case of CCNc1ccc(Br)cc(C(=O)/C=C/c2c(Cl)cccc2Cl)c1=O, the Potency is reported as inconclusive: 2.91 µM [activator, partial curve]. In the case of COc1ccc(C(C)(C)C)cc1NC(=O)CCCn1c(=O)oc2ccccc21, the Potency is reported as “inactive”. In the case of Cn1cc([N+](=O)[O-])c(C(=O)Nc2nccs2)n1, the Potency is reported as inconclusive: 5.8 µM [activator, full curve, poor fit]. With O=C(CSc1nc2sc3c(c2c(=O)n1-c1ccccc1)CCCC3)NCc1ccco1 the Potency was inconclusive: 6.51 µM [activator, single point]. For O=C(NCCc1ccccc1)c1cccc(NC(=O)C2CCC2)c1, the Potency was inconclusive: 4.11 µM [activator, single point]. For O=C(NC(=S)Nc1nc2c(ccc3ccccc32)s1)c1cccs1, the Potency was “inactive”. With CCCNC(=O)OC[C@H]1O[C@H](CCO/N=C(\C)CCN2CCc3nc(-c4ccccc4)c(-c4ccccc4)cc3C2)C=C[C@@H]1Oc1ccc(OC)cc1 the Potency was inconclusive: 10.3 µM [activator, partial curve, poor fit]. With CCc1cc(OCCN(C)C)ccc1Cl the Potency was “inactive”.
